According to patent US20100204142A1, “USE OF THE PEPTIDE PHPFHLFVY (RENIN INHIBITOR) AS A THERAPEUTIC AGENT” (priority 2007, published 2010):
Not every detail of the peptide structures is certain; ends, links or a residue may be inferred. Where no end group is shown, it is not given here.

Legend:
[1] = tested on: HIV-1 infected CEM-SS cells (strain HIV-1IIIB); test: HIV-1 antiviral assay (CPE reduction, MTS); assay type: cell-based; conditions: peptide 10 micrograms per ml, 6 days post-infection
[2] = tested on: hepatitis B virus (HBV) ayw strain in HepG2-2.2.15 cells; test: HBV experimental assay system (secreted HBV DNA, TaqMan PCR); assay type: cell-based; conditions: test peptide 10 micrograms per ml; six days; HBV DNA in supernatant
A549 cells [3] = test: Propidium iodide cell cycle assay; assay type: cell-based, human; conditions: 24 hours, peptide 10 micrograms per ml, FACS
[4] = tested on: Human Peripheral Blood Mononuclear Cells (PBMC); test: T cell proliferation assay (PHA, 3H-thymidine); assay type: cell-based; conditions: peptide 10 micrograms per ml
[5] = tested on: Human Peripheral Blood Mononuclear Cells (PBMC); test: B cell proliferation assay (SAC plus Interleukin-2, 3H-thymidine); assay type: cell-based; conditions: peptide 10 micrograms per ml
RAW 264.7 cells = test: Phagocytosis assay (Fluorescein-labeled Escherichia coli); assay type: cell-based, mouse; conditions: peptide 10 micrograms per ml, flow cytometry
A549 cells [6] = test: Apoptosis induction assay (Annexin-5); assay type: cell-based, human; conditions: 24 hours, peptide 10 micrograms per ml
A549 cells [7] = test: Apoptosis prevention assay (C2 ceramide, Annexin-5); assay type: cell-based, human; conditions: 30 min pretreatment, peptide 10 micrograms per ml
[8] = tested on: spleen cells of Ovalbumin-immunized Balb/c mice; test: Th1/Th2 cytokine profiling assay; assay type: cell-based, mouse; conditions: peptide 10 micrograms per ml; Ovalbumin restimulation; 72 hours
[9] = tested on: macrophages differentiated from human PBMC; test: TNF alpha production assay (LPS, ELISA); assay type: cell-based; conditions: peptide 10 micrograms per ml, lipopolysaccharide 200 ng/ml, overnight
[10] = tested on: Primary Human endothelial cells (HUVEC); test: Endothelial cell migration assay; assay type: cell-based; conditions: peptide 10 micrograms per ml, 22 hours
HUVEC = test: Endothelial tube formation assay; assay type: cell-based, human; conditions: peptide 10 micrograms per ml, 20 hours
[11] = tested on: HCMV strain AD169 in MRC-5 cells; test: HCMV plaque reduction assay; conditions: peptide 10 micrograms per ml; HCMV AD169 in MRC-5 cells; 7-10 days

PHPFHLFVY-OH [Renin inhibitor]
% CPE reduction in HIV-1 infected CEM-SS cells [1]: 0.0% | % inhibition of HBV replication in HEP G2 cells [2]: 0.0% | Cell cycle analysis G0/G1 (A549 cells [3]): 57.2 | Cell cycle analysis G2/M (A549 cells [3]): 9.5 | Cell cycle analysis S (A549 cells [3]): 33.2 | % of PHA induced control [4]: 96.4% | % of SAC/IL2 induced control [5]: 106.2% | % of control phagocytosis (RAW 264.7 cells): 102.9% | % of induction (A549 cells [6]): 0.7% | % prevention of ceramide induced apoptosis (A549 cells [7]): 0.0% | IFNγ spleen cells; TH1 response (% of control) [8]: 76.6 % of control | IL-2 spleen cells (% of control) [8]: 70.7 % of control | IL-4 spleen cells; TH2 response (% of control) [8]: 113.5 % of control | IL-5 spleen cells; TH2 response (% of control) [8]: 57.6 % of control | TNF-a spleen cells; TH1 response (% of control) [8]: 111.8 % of control | % of LPS induction [9]: 117.8% | % inhibition of migration [10]: 33% | % inhibition of tube formation (HUVEC): 27% | % plaque reduction [11]: 0.0%
